These are yes or no findings as the source states them, for the method shown. For part of these data: Binding seen in cells or lysates may run through a third protein. Some entries that bind do so weakly or less than the wild type.
Tests used:
[1] = molecular target: NH2-terminally (His)6-tagged human tankyrase 1 (human) (UniProt O95271); assay: pull-down; as a2, in the presence of single- or double-stranded 42 bp telomeric or nontelomeric DNA oligonucleotides; data not shown; both purified
[2] = molecular target: tankyrase 1 (endogenous) (human (endogenous in HeLa and in PD20 fibroblasts)) (UniProt O95271); assay: co-IP; HeLa cell extracts immunoprecipitated with anti-TNKS1, anti-TNKS2 or anti-FANCD2 antibody; Western blot probed with anti-FANCD2 or TNKS1 antibodies
[3] = molecular target: T1, tankyrase 2 (endogenous, HeLa) (human (endogenous in HeLa)) (UniProt Q9H2K2); assay: as above
T1 sequence: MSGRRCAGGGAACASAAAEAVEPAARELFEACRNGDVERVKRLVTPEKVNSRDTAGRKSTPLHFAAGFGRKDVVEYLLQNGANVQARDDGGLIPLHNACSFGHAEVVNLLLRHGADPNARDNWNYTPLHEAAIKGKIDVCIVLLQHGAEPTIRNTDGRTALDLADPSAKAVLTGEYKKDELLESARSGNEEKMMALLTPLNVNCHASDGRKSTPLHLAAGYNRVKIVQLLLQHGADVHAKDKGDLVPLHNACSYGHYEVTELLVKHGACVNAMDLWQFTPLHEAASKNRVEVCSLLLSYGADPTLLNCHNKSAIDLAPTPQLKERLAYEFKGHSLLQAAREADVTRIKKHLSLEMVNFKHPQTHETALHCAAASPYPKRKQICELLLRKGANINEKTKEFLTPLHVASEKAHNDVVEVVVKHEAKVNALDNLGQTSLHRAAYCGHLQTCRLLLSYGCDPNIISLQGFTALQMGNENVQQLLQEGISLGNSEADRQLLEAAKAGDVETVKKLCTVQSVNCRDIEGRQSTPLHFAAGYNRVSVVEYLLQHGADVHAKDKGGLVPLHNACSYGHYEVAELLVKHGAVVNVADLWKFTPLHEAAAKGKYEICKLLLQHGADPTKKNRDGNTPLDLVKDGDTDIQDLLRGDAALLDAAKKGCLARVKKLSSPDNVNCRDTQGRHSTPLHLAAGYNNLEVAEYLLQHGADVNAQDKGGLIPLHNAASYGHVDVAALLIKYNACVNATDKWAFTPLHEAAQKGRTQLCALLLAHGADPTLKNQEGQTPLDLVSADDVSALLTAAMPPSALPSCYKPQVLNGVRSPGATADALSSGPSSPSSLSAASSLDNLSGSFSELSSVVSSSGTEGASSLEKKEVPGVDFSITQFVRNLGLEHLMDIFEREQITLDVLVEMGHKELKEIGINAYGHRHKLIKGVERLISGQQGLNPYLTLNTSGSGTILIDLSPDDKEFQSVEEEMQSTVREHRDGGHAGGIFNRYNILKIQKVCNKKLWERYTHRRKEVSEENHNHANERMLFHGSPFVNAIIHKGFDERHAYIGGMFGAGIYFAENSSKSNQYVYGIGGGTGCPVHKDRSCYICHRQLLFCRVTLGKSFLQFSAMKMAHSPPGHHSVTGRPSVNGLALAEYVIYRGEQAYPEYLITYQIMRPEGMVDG

The chains behind the UniProt entries cited, without tags or fusion partners.
UniProt O95271: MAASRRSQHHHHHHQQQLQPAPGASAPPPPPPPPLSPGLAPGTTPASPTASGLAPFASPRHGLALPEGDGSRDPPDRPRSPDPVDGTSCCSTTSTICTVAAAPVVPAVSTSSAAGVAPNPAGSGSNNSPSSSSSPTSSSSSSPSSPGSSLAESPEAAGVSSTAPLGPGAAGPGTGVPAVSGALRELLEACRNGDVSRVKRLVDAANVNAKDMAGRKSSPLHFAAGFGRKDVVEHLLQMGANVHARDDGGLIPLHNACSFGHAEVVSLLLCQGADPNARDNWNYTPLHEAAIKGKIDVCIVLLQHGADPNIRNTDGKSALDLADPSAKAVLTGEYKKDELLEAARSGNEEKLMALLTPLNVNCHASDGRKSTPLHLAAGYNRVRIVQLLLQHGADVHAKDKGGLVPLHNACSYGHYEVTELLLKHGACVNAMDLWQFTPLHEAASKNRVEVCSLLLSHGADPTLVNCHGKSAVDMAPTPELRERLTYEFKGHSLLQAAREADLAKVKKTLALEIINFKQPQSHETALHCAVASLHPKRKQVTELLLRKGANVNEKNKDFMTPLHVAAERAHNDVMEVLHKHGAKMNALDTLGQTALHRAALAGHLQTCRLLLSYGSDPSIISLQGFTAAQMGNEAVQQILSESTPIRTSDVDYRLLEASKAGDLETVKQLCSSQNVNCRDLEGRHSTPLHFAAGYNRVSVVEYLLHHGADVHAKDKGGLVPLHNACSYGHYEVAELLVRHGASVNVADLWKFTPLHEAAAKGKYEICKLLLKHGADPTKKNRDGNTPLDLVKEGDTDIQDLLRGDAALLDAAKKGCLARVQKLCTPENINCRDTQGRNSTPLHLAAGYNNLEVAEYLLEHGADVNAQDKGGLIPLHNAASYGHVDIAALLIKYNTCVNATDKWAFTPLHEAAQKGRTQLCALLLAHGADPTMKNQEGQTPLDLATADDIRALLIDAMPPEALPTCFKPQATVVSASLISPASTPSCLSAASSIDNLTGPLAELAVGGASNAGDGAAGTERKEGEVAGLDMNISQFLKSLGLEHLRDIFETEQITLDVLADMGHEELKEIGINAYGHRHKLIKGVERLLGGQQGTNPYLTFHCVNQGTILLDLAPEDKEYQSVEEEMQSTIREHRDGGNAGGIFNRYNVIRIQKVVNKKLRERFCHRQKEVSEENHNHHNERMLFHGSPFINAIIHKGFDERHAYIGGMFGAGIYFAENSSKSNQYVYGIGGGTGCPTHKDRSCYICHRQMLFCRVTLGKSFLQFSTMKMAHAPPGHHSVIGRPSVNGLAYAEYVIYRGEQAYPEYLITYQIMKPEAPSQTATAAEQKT
UniProt Q9BXW9: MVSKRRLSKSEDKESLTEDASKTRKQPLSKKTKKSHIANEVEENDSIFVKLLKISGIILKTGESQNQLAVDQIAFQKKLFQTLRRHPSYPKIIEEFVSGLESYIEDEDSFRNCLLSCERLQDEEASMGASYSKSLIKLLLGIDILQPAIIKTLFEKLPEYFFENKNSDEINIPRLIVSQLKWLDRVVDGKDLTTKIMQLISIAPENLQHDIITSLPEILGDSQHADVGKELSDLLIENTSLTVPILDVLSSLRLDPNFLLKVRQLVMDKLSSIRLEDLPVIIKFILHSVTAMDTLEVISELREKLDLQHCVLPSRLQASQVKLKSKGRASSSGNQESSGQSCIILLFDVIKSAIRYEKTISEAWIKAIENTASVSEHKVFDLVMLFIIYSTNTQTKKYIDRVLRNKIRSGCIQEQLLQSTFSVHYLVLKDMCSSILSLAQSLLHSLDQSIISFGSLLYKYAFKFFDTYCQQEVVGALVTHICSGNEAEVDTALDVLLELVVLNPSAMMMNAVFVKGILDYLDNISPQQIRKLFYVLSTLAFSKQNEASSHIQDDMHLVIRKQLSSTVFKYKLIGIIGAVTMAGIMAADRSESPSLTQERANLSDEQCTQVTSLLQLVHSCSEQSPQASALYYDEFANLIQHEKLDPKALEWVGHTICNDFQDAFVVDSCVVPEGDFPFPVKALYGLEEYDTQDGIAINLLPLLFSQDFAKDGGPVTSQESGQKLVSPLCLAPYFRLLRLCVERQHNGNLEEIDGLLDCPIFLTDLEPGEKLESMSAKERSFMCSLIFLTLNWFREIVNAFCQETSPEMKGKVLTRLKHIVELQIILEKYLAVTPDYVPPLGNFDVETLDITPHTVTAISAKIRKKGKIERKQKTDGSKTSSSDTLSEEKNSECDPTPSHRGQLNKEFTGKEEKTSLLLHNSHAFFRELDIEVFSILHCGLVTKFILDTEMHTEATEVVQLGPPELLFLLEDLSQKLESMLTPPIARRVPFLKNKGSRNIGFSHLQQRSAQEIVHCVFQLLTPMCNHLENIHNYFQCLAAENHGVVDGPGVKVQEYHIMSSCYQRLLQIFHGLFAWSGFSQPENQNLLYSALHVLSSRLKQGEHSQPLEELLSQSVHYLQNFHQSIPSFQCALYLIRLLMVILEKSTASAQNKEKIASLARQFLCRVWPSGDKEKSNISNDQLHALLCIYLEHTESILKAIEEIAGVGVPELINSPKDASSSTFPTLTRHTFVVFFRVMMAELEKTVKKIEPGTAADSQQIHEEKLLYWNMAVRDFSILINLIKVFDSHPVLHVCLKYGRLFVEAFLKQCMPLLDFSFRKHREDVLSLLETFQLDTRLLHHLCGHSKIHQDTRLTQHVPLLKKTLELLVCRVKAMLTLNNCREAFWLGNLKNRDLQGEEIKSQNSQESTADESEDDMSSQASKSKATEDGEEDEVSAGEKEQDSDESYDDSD

## Recombinant full-length wild-type FANCD2 (from UniProt Q9BXW9 1-1451)
[1]
  binding: binds

## FANCD2 (endogenous, HeLa) (from UniProt Q9BXW9 1-1451)
[2]
  binding: binds
[3]
  binding: no binding
